These are yes or no findings as the source states them, for the method shown. Some binding calls cover weakened binding; strength is not graded here. Tags and fused reporters may be left off the sequences shown.
Experiments:
[1] = molecular target: T1, Methylobacterium extorquens AM1 formate dehydrogenase 1 alpha subunit (MeFDH1-α), recombinant, His-tagged (Methylobacterium extorquens AM1) (UniProt C5ATT7); assay: cryo-EM structure; single-particle cryo-EM of purified MeFDH1 (0.5 mg/ml), Glacios 200 kV, Falcon 4; holoenzyme map at 2.83 Å; both purified
T1 sequence: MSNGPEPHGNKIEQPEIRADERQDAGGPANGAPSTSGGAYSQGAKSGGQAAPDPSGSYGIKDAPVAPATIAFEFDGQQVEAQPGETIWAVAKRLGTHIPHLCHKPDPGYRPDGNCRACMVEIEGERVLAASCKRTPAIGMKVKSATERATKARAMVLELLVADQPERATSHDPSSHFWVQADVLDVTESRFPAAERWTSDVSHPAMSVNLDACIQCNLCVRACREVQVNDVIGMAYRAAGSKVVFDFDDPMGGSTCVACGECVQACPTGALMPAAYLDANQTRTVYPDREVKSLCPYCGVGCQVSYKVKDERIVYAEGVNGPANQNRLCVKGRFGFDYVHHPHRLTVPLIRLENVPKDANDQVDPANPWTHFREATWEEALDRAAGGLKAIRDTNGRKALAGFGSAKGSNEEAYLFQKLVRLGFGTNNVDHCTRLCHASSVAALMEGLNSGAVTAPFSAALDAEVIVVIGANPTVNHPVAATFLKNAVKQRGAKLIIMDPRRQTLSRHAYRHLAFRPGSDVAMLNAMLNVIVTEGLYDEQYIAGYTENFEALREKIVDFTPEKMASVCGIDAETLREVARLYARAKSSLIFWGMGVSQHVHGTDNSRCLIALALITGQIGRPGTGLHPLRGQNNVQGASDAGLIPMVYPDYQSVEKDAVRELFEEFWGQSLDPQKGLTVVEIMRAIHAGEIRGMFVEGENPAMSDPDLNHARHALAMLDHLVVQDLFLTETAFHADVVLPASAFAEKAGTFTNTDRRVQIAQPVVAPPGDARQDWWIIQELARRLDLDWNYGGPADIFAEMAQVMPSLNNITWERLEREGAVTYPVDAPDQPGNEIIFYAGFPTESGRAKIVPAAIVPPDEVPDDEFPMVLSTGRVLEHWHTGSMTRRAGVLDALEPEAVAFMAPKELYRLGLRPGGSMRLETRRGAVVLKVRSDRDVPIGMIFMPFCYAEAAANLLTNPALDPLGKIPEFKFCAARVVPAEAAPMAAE

[2] = molecular target: T1, Methylobacterium extorquens AM1 formate dehydrogenase 1 alpha subunit (MeFDH1-α), recombinant, His-tagged (Methylobacterium extorquens AM1); assay: SEC-MALS; Superdex 200 10/300 GL pre-equilibrated with the final SEC buffer; 1 mg protein injected at 0.4 ml/min; co-purified MeFDH1 complex; both purified

- binding [1]: binds
- binding [2]: binds
B1: Methylobacterium extorquens AM1 formate dehydrogenase 1 beta subunit (MeFDH1-β), recombinant (enzyme, UniProt C5ATT6 1-572)
chain: MSEASGTVRSFAHPGRGRNVARAVPKGRQVDPHAKVEIEELLGTRPRQRDLLIEHLHLIQDTYGQISADHLAALADEMSLAFAEVFETATFYAHFDVVKEGEADIPRLTIRVCDSITCAMFGADELLETLQRELASDAVRVVRAPCVGLCDHAPAVEVGHNFLHRADLASVRAAVEAEDTHAHIPTYVDYDAYRAGGGYATLERLRSGELPVDDVLKVLDDGGLRGLGGAGFPTGRKWRSVRGEPGPRLMAVNGDEGEPGTFKDQLYLNTDPHRFLEGMLIGAHVVEAADVYIYLRDEYPISREILAREIAKLPEGGTRIHLRRGAGAYICGEESSLIESLEGKRGLPRHKPPFPFQVGLFNRPTLINNIETLFWVRDLIERGAEWWKSHGRNGRVGLRSYSVSGRVKEPGVKLAPAGLTIQELIDEYCGGISDGHSFAAYLPGGASGGILPASMNDIPLDFGTLEKYGCFIGSAAVVILSDQDDVRGAALNLMKFFEDESCGQCTPCRSGTQKARMLMENGVWDTDLLGELAQCMRDASICGLGQAASNPVSTVIKYFPDLFPEPRAVAAE

Reference: paper PMC10869683, “Structure of recombinant formate dehydrogenase from Methylobacterium extorquens (MeFDH1)” (Scientific Reports, 2024)
